Results are given in words; binding and its absence hold for the method and conditions named. Some binding calls cover weakened binding; strength is not graded here.
Assays:
[1] = molecular target: human serum albumin (human) (UniProt P02768); assay: summary of the HSA-affinity and peptide binding studies
[2] = molecular target: human serum albumin (human) (UniProt P02768); assay: HSA-affinity column, SDS-PAGE and MALDI-MS (FIG. 1A, 1B)
[3] = molecular target: human serum albumin (human) (UniProt P02768); assay: HSA-Sepharose affinity chromatography of human lung extract, elution at pH 4.0, SDS-PAGE, MALDI-MS

Chains of the proteins cited; added tags and fusions are not shown. Residues count along the entry.
UniProt P02768, residues 25-609: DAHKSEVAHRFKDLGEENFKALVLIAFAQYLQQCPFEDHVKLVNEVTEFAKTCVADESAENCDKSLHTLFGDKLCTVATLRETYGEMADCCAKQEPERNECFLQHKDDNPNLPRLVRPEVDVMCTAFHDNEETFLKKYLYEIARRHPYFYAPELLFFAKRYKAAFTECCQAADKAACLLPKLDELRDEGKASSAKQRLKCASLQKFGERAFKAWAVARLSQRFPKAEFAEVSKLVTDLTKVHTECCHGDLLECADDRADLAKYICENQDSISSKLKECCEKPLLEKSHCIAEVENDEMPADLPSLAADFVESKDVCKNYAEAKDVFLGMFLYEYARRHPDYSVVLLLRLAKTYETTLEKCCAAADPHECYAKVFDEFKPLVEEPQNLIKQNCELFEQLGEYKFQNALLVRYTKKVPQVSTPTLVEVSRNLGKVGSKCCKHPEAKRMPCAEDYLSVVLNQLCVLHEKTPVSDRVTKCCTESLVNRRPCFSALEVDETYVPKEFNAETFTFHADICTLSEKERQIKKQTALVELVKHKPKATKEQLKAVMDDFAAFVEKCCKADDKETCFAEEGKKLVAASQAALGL
UniProt P05164, residues 165-745: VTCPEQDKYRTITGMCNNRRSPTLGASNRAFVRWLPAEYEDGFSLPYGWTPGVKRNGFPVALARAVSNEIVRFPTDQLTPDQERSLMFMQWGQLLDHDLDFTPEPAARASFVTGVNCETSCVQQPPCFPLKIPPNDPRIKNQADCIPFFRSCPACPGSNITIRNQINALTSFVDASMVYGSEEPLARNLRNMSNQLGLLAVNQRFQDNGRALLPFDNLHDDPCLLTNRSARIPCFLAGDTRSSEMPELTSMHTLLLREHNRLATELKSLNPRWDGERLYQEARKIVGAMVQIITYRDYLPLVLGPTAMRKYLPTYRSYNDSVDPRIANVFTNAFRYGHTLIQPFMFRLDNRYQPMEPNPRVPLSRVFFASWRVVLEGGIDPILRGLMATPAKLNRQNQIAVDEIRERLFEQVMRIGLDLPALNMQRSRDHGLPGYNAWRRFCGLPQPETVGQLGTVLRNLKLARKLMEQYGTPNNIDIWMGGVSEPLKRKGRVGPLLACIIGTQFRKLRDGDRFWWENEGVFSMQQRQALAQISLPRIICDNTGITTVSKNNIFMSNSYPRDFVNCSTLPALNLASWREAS

Measured: binding

MPO (80 kDa protein isolated from human lung tissue) (from UniProt P05164 165-745) (enzyme)
binds: all assays above
